Reference: PubChem BioAssay AID328 (DTP/NCI, 2004)
The list shows only some results of the screen, not a fair sample: it is rich in T/C values a quarter to a half above the control, in often repeated tests (any T/C) and in doses without a T/C. Other doses and runs of a compound stand elsewhere. T/C is the treated group as % of the vehicle group. Some doses have a count of surviving animals in place of a T/C: the source files T/C as zero there, which appears to mark a toxic dose or a test without result, not a measured value. Some doses without a T/C left all or most animals alive at the check, yet need not have been tolerated: survival well below the control is almost never listed, so the zero probably covers shortened survival too. Survivors were counted at the toxicity check, usually on the fifth day, unless a day is given; later deaths do not show. Schedules are NCI's codes, taken here to give the interval after Q, in days (D) or hours (H), and the number of doses after X. Some entries hold several experiments; their values stand side by side, smallest first. Where survival is the endpoint, this PubChem deposit counts one and a half times the control or more as active, and values a quarter to a half above the control carry no call in these data; other NCI protocols may use other cut-offs. Signs of the kind (2×) stand for listed records that agree. Some T/C values are followed by the survivors on the day toxicity was checked, most often the fifth; where none is given, no animal had died by that day.

Test system: BDF1 mice, P388 leukemia ip, median survival T/C
Assay: NCI In Vivo Anticancer Drug Screen. Data for tumor model P388 Leukemia (intraperitoneal) in B6D2F1 (BDF1) mice
Conditions: T/C endpoint: median survival time, higher T/C = longer survival
Outline: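 Mice carrying the transplantable tumour receive compound or vehicle. Survival is followed in each arm, and the treated measure is divided by the vehicle measure.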

[1] = dose: 18.0 mg/kg/injection, schedule: Q01DX009 (ip), vehicle: Klucel (hydroxypropylcellulose) (HPC)
[2] = dose: 28.0 mg/kg/injection, schedule: Q01DX009 (ip), vehicle: Klucel (hydroxypropylcellulose) (HPC)
[3] = dose: 200.0 mg/kg/injection, schedule: Q01DX009 (ip), vehicle: saline
[4] = dose: 200.0 mg/kg/injection, schedule: Q04DX003 (ip), vehicle: saline
[5] = dose: 100.0 mg/kg/injection, schedule: Q01DX009 (ip), vehicle: saline with Tween-80
[6] = dose: 200.0 mg/kg/injection, schedule: Q01DX009 (ip), vehicle: saline with Tween-80
[7] = dose: 50.0 mg/kg/injection, schedule: Q01DX009 (ip), vehicle: saline with Tween-80
[8] = dose: 25.0 mg/kg/injection, schedule: Q01DX009 (ip), vehicle: saline
[9] = dose: 50.0 mg/kg/injection, schedule: Q01DX009 (ip), vehicle: saline
[10] = dose: 100.0 mg/kg/injection, schedule: Q01DX009 (ip), vehicle: saline

Q: For COc1ccc2c(c1OC)C1C3CC=CC3C2C2=[N+]1CCc1cc3c(cc12)OCO3 (stereo unspecified), which survivor count (dose: 3.12 mg/kg/injection, schedule: Q01DX009 (ip), vehicle: Klucel (hydroxypropylcellulose) (HPC)) is on record?
A: The survivor count was 0 of 6.

Q: And the T/C [1]?
A: The T/C was 125 % of control.

Q: What about the survivor count [1] of the same molecule?
A: The survivor count was 4 of 6.

Q: And the T/C [2]?
A: The T/C was 135 % of control (2×).

Q: And the survivor count [2]?
A: Its survivor count is 3 of 6.

Q: And the survivor count (dose: 40.0 mg/kg/injection, schedule: Q01DX009 (ip), vehicle: Klucel (hydroxypropylcellulose) (HPC))?
A: Its survivor count is 1 of 6, 3 of 6, 5 of 6.

Q: C=CCC(CC)C(=O)O (stereo unspecified) was tested. Which survivor count [3] did it give?
A: The survivor count was 5 of 6.

Q: CN(C)CCCNC(=O)c1ccc2c(c1O)C(=O)c1ccccc1C2=O was tested. Which survivor count (dose: 100.0 mg/kg/injection, schedule: Q01DX005 (ip), vehicle: saline) did it give?
A: The survivor count was 6 of 6.

Q: What about the survivor count (dose: 200.0 mg/kg/injection, schedule: Q01DX005 (ip), vehicle: saline) of the same molecule?
A: The survivor count was 0 of 6.

Q: What does the source list for CC1(C)N=C(N)N=C(N)N1c1cccc(C#N)c1?
A: T/C (dose: 50.0 mg/kg/injection, schedule: Q04DX003 (ip), vehicle: saline): 127 % of control; T/C (dose: 75.0 mg/kg/injection, schedule: Q04DX003 (ip), vehicle: saline): 130 % of control; survivor count [4]: 0 of 6

Q: How did the survivor count [5] turn out when CCOC(=O)/C(C#N)=C/C=C1\C=CC=CN1C was run?
A: The survivor count was 4 of 6.

Q: What about the survivor count [6] of the same molecule?
A: Its survivor count is 1 of 6.

Q: How did the survivor count (dose: 100.0 mg/kg/injection, schedule: Q04DX003 (ip), vehicle: Klucel (hydroxypropylcellulose) (HPC)) turn out when FC(F)(F)c1nc2nccnc2[nH]1 was run?
A: Its survivor count is 6 of 6.

Q: And the survivor count (dose: 400.0 mg/kg/injection, schedule: Q04DX003 (ip), vehicle: Klucel (hydroxypropylcellulose) (HPC))?
A: The survivor count was 3 of 6.

Q: Which results are given for N#CS/C=C\C(N)=O?
A: survivor count (dose: 3.0 mg/kg/injection, schedule: Q01DX009 (ip), vehicle: Klucel (hydroxypropylcellulose) (HPC)): 6 of 6; survivor count (dose: 12.0 mg/kg/injection, schedule: Q01DX009 (ip), vehicle: Klucel (hydroxypropylcellulose) (HPC)): 3 of 6; survivor count (dose: 25.0 mg/kg/injection, schedule: Q04DX003 (ip), vehicle: Klucel (hydroxypropylcellulose) (HPC)): 0 of 6

Q: Which survivor count [6] does the source give for NC(C(=O)O)C1=CCC=CC1 (stereo unspecified) here?
A: Its survivor count is 3 of 6.

Q: Which survivor count (dose: 400.0 mg/kg/injection, schedule: Q01DX009 (ip), vehicle: Klucel (hydroxypropylcellulose) (HPC)) does the source give for C[C@]12CC[C@@H]3c4ccc(O)cc4CC[C@H]3[C@@H]1CCC(=O)O2 here?
A: The survivor count was 6 of 6.

Q: Which results are given for CCOC(=O)C1=C(C)NC(C)=C(C(=O)OCC)C1c1ccccc1Cl?
A: survivor count (dose: 170.0 mg/kg/injection, schedule: Q01DX009 (ip), vehicle: Klucel (hydroxypropylcellulose) (HPC)): 0 of 6; survivor count (dose: 170.0 mg/kg/injection, schedule: Q04DX003 (ip), vehicle: Klucel (hydroxypropylcellulose) (HPC)): 3 of 6; survivor count (dose: 260.0 mg/kg/injection, schedule: Q04DX003 (ip), vehicle: Klucel (hydroxypropylcellulose) (HPC)): 0 of 6; survivor count (dose: 390.0 mg/kg/injection, schedule: Q01DX001 (ip), vehicle: Klucel (hydroxypropylcellulose) (HPC)): 1 of 6; survivor count (dose: 390.0 mg/kg/injection, schedule: Q04DX003 (ip), vehicle: Klucel (hydroxypropylcellulose) (HPC)): 0 of 6

Q: What does the source list for O=C1C(N2CCCC2)=C(N2CC2)C(=O)C(N2CCCC2)=C1N1CC1?
A: T/C (dose: 0.5 mg/kg/injection, schedule: Q01DX009 (ip), vehicle: saline): 131 % of control; survivor count (dose: 1.0 mg/kg/injection, schedule: Q01DX009 (ip), vehicle: saline): 5 of 6; survivor count (dose: 2.0 mg/kg/injection, schedule: Q01DX009 (ip), vehicle: saline): 0 of 6

Q: For CN=C(N)c1ccc(N=C(N)c2ccc(N=C(N)c3ccc(N=C(O)c4cccc(C(O)=Nc5ccc(C(N)=Nc6ccc(C(N)=Nc7ccc(C(N)=NC)cc7)cc6)cc5)c4)cc3)cc2)cc1, which T/C (dose: 2.6 mg/kg/injection, schedule: Q04DX003 (ip), vehicle: saline with Tween-80) is on record?
A: The T/C was 126 % of control.

Q: What about the T/C (dose: 6.0 mg/kg/injection, schedule: Q01DX009 (ip), vehicle: saline with Tween-80) of the same molecule?
A: The T/C was 145 % of control.

Q: And the T/C (dose: 6.0 mg/kg/injection, schedule: Q04DX003 (ip), vehicle: saline with Tween-80)?
A: Its T/C is 126 % of control.

Q: What about the T/C (dose: 25.0 mg/kg/injection, schedule: Q01DX009 (ip), vehicle: saline with Tween-80) of the same molecule?
A: The T/C was 128, 227, 250 % of control (2×).

Q: And the survivor count [7]?
A: Its survivor count is 6 of 6.

Q: And the survivor count [5]?
A: The survivor count was 6 of 6.

Q: With O=P(CCCl)(OCCCl)N1CCCCC1 (stereo unspecified) as the molecule, how does the T/C [4] read?
A: The T/C was 126 % of control.

Q: How did the T/C (dose: 100.0 mg/kg/injection, schedule: Q01DX009 (ip), vehicle: Klucel (hydroxypropylcellulose) (HPC)) turn out when Cc1cc(N(CCCl)CCCl)ccc1C=Nc1cccnc1 was run?
A: Its T/C is 135 % of control.

Q: CC1CCCCC1(O)CSc1ccccc1 (stereo unspecified) was tested. Which T/C [7] did it give?
A: Its T/C is 131 % of control.

Q: With NC(=S)N/N=C\c1c[nH]c2nccnc12 as the molecule, how does the survivor count (dose: 200.0 mg/kg/injection, schedule: Q01DX009 (ip), vehicle: water) read?
A: The survivor count was 6 of 6.

Q: C[N+]1=C2CCCC2=C(N)CC1 was tested. Which survivor count (dose: 6.25 mg/kg/injection, schedule: Q04DX003 (ip), vehicle: saline) did it give?
A: Its survivor count is 6 of 6.

Q: What does the source list for C=Cn1ccnc1C.C=Cn1ccnc1C.CC(=O)CC(C)=O.CC(=O)CC(C)=O.[Ni]?
A: survivor count (dose: 100.0 mg/kg/injection, schedule: Q04DX002 (ip), vehicle: saline with Tween-80): 1 of 6; survivor count (dose: 200.0 mg/kg/injection, schedule: Q04DX002 (ip), vehicle: saline with Tween-80): 0 of 6; survivor count (dose: 400.0 mg/kg/injection, schedule: Q04DX002 (ip), vehicle: saline with Tween-80): 0 of 6

Q: With CC(=O)OC1C(OCc2ccccc2)OC(COCc2ccccc2)C(OC2OC(COCc3ccccc3)C(OCc3ccccc3)C(OCc3ccccc3)C2OCc2ccccc2)C1OCc1ccccc1 (stereo unspecified) as the molecule, how does the survivor count (dose: 10.62 mg/kg/injection, schedule: Q01DX009 (ip), vehicle: Klucel (hydroxypropylcellulose) (HPC)) read?
A: The survivor count was 6 of 6.

Q: What does the source list for C=C1C(=O)O[C@@H]2[C@H](O)[C@@H](C)[C@@H]3C=CC(=O)[C@@]3(C)[C@H](OC(=O)C=C(C)C)[C@H]12?
A: T/C (dose: 3.12 mg/kg/injection, schedule: Q01DX009 (ip), vehicle: saline): 129 % of control; T/C (dose: 6.25 mg/kg/injection, schedule: Q01DX009 (ip), vehicle: saline): 131 % of control; T/C (dose: 12.5 mg/kg/injection, schedule: Q01DX009 (ip), vehicle: saline): 137 % of control; survivor count [8]: 6 of 6; survivor count [9]: 0 of 6; survivor count [10]: 0 of 6; survivor count [3]: 0 of 6

Q: Which T/C (dose: 66.0 mg/kg/injection, schedule: Q01DX009 (ip), vehicle: saline, evaluated on day 20) does the source give for C=C(CC(=O)O)C(=O)O (tested in a mixture with another compound) here?
A: Its T/C is 133 % of control.

Q: What about the T/C (dose: 66.0 mg/kg/injection, schedule: Q01DX009 (ip), vehicle: saline, evaluated on day 30) of the same molecule?
A: The T/C was 129 % of control.

Q: What about the T/C (dose: 100.0 mg/kg/injection, schedule: Q01DX009 (ip), vehicle: saline, evaluated on day 20) of the same molecule?
A: Its T/C is 125 % of control [4 of 6 alive].

Q: And the T/C (dose: 100.0 mg/kg/injection, schedule: Q01DX009 (ip), vehicle: saline, evaluated on day 30)?
A: Its T/C is 129 % of control.

Q: What about the survivor count (dose: 150.0 mg/kg/injection, schedule: Q01DX009 (ip), vehicle: saline) of the same molecule?
A: The survivor count was 6 of 6.

Q: Which results are given for CC[n+]1ccc(Nc2ccc(NC(=O)c3ccc(Nc4cc[n+](CC)c5ccc(N)cc45)cc3)cc2)cc1?
A: T/C (dose: 0.05 mg/kg/injection, schedule: Q01DX010 (ip), vehicle: saline): 130 % of control; T/C (dose: 0.2 mg/kg/injection, schedule: Q01DX010 (ip), vehicle: saline): 145 % of control

Q: Which survivor count (dose: 400.0 mg/kg/injection, schedule: Q04DX003 (ip), vehicle: saline with Tween-80) does the source give for Cn1c(N)c(N=Cc2ccc(Cl)cc2)c(=O)n(C)c1=O here?
A: The survivor count was 3 of 6.

Q: How did the T/C [8] turn out when CS(C)=O.CS(C)=O.[Cl][Rh]([Cl])([Cl])[Cl] was run?
A: The T/C was 130 % of control.

Q: And the T/C [9]?
A: Its T/C is 130 [5 of 6 alive] and 133 % of control.

Q: And the survivor count (dose: 75.0 mg/kg/injection, schedule: Q01DX009 (ip), vehicle: saline)?
A: The survivor count was 4 of 6 and 5 of 6.

Q: For Nc1nnc[se]1, which T/C [9] is on record?
A: Its T/C is 138 % of control.

Q: What about the survivor count [5] of the same molecule?
A: Its survivor count is 6 of 6.

Q: And the survivor count [10]?
A: The survivor count was 6 of 6.

Q: What about the survivor count [6] of the same molecule?
A: Its survivor count is 6 of 6.
